Data on one molecule can be found in PMC10809841, “Transferrin Is Up-Regulated by Microbes and Acts as a Negative Regulator of Immunity to Induce Intestinal Immunotolerance” (Research, 2024).

Sequences of proteins named here, by UniProt entry; tags and fusion partners are left off. Residues count along the entry.
UniProt P02787, residues 20-698: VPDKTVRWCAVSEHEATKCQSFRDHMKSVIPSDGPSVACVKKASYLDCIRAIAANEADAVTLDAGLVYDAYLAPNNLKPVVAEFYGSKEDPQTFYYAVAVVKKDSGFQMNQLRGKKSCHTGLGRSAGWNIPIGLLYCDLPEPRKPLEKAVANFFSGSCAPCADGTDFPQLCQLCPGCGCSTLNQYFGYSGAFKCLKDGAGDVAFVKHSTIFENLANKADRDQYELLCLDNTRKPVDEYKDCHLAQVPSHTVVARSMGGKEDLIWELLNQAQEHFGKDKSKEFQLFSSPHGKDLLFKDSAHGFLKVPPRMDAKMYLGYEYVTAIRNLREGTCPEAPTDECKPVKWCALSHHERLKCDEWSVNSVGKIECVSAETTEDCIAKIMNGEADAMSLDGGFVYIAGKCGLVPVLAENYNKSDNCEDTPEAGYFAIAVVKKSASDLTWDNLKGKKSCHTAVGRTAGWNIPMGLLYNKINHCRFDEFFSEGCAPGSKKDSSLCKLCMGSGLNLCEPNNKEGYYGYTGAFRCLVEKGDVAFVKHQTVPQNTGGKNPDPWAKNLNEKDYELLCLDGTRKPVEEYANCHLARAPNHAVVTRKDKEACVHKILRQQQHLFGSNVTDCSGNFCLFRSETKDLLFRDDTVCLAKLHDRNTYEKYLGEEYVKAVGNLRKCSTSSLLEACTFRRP

The assay addresses transferrin (in human PBMCs and primary macrophages) (human (in PBMCs and primary macrophages)) (UniProt P02787). Nature of the assay: affinity purification with mass spectrometry; mass spectrometry-based coimmunoprecipitation to screen targets of transferrin in human PBMCs.

No constants are given. Whether binding was seen depends on the method and setting. Binding seen in cells or lysates may run through a third protein. A yes stands for co-enrichment or nearness to the bait. Other partners may have been found.

B1: cluster of differentiation 14 (CD14) (receptor, UniProt P08571 20-345, looked up)
chain: TTPEPCELDDEDFRCVCNFSEPQPDWSEAFQCVSAVEVEIHAGGLNLEPFLKRVDADADPRQYADTVKALRVRRLTVGAAQVPAQLLVGALRVLAYSRLKELTLEDLKITGTMPPLPLEATGLALSSLRLRNVSWATGRSWLAELQQWLKPGLKVLSIAQAHSPAFSCEQVRAFPALTSLDLSDNPGLGERGLMAALCPHKFPAIQNLALRNTGMETPTGVCAALAAAGVQPHSLDLSHNSLRATVNPSAPRCMWSSALNSLNLSFAGLEQVPKGLPAKLRVLDLSCNRLNRAPQPDELPEVDNLTLDGNPFLVPGTALPHEGSMN
notes: CD14, TLR coreceptor; isolated protein used in SPR and native gel; Probably a soluble recombinant CD14; also called WT-CD14; wild-type CD14
Regarding B1, the binding result is reported as “binds”.
